Values from PubChem BioAssay AID652259 (Drosophila RNAi Screening Center, 2013).

- Screen: 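Knock-downs that push a Wingless-driven reporter up or down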 (primary screen)
- Cells: Drosophila clone 8 imaginal disc epithelial cells
- Reagents: long dsRNA against Drosophila genes
- Treatment: pathway stimulated by co-transfected Wingless expression plasmid
- Measurement: 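Firefly luciferase from a tcf-site Wingless reporter, measured alongside co-transfected Renilla luciferase that tracks transfection; pathway stimulated by a Wingless plasmid; the firefly-to-Renilla ratio is not deposited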
- Direction: firefly reporter light: higher = more Wg reporter light, before normalisation; Renilla control light: higher = more transfected or surviving cells
- Active means: 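Strong candidates differ from their plate mean by at least two out of four per-plate statistical tests; weak candidates meet just one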
- Meaning of the calls: active = candidate regulator (raises or lowers reporter); inactive = not a candidate
The screen tested about 22,000 reagents; this is a random part of those that have a named target and a result. Of all reagents, 233 (1.1%) are marked active. 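Light values are raw, unnormalised plate reads; the ratio scores behind the reporter calls were not deposited.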 Not given: the amount of reagent, the time to read-out, the dose of the treatment.

Gene	DRSC id	reporter change call, replicate 1	firefly reporter light, replicate 1	firefly reporter light, replicate 2	Renilla control light, replicate 1	Renilla control light, replicate 2	outcome
Trhn	DRSC08621		20683		6626		inactive
CG13891	DRSC08361		6403		4213		inactive
Sol1	DRSC15263		13266		3605		inactive
Sol1	DRSC15271		12283		3513		inactive
Sol1	DRSC15681		11559		3702		inactive
tsu	DRSC07265		1981	8593	960	4868	inactive
CG9101	DRSC20152		14243		10976		inactive
Hs2st	DRSC03348		9320		3163		inactive
Zw	DRSC20303		1892	6496	869	2265	inactive
Tpi	DRSC16888		1904	3755	1063	1520	inactive
Sik3	DRSC06505		15348		4160		inactive
Sik3	DRSC06771		15451		4764		inactive
SKIP	DRSC14713	Wg reporter activity raised	29936		4784		inactive
SKIP	DRSC14714		37973		5050		inactive
SKIP	DRSC15864		32752		4771		inactive
SKIP	DRSC16195		6618	7719	2123	2755	inactive
SKIP	DRSC16196		36184		4432		inactive
CG11151	DRSC19387		24241		16384		inactive
CG3603	DRSC18317		13225		12176		inactive
CG34033	DRSC05190		20433		9847		inactive
MtnD	DRSC22733		5.41e5	5.98e5	2.41e5	2.35e5	inactive
CG33310	DRSC01897		3532	3891	1061	1914	inactive
CG17490	DRSC03794		19842		9085		inactive
CG17490	DRSC03797		2000	6410	597	2138	inactive

Records listed so far whose target name begins with S or s:
Gene	DRSC id	reporter change call, replicate 1	firefly reporter light, replicate 1	firefly reporter light, replicate 2	Renilla control light, replicate 1	Renilla control light, replicate 2	outcome
Sol1	DRSC15263		13266		3605		inactive
Sol1	DRSC15271		12283		3513		inactive
Sol1	DRSC15681		11559		3702		inactive
Sik3	DRSC06505		15348		4160		inactive
Sik3	DRSC06771		15451		4764		inactive
SKIP	DRSC14713	Wg reporter activity raised	29936		4784		inactive
SKIP	DRSC14714		37973		5050		inactive
SKIP	DRSC15864		32752		4771		inactive
SKIP	DRSC16195		6618	7719	2123	2755	inactive
SKIP	DRSC16196		36184		4432		inactive

Additional reagents:
Gene	DRSC id	reporter change call, replicate 1	firefly reporter light, replicate 1	firefly reporter light, replicate 2	Renilla control light, replicate 1	Renilla control light, replicate 2	outcome
ZnT63C	DRSC08032		3579		1756		inactive
ZnT63C	DRSC08033		3604		1573		inactive
ZnT63C	DRSC08519		8785		4717		inactive
ZnT63C	DRSC21989		5.52e5	5.63e5	1.34e5	1.27e5	inactive
Rpt3R	DRSC16501		10969		2695		inactive
ninaG	DRSC16102		13590		3632		inactive
Gr28b	DRSC02291		3074	7144	882	2497	inactive
Gr28b	DRSC02292		2125	4826	659	1717	inactive
CG3368	DRSC15485		3344	5177	1505	1315	inactive
BomS5	DRSC22306		3.10e5	3.33e5	1.30e5	1.29e5	inactive
CG32718	DRSC17538		2115		1274		inactive
enc	DRSC08716		4208		2245		inactive
CG30413	DRSC04001		12905		5844		inactive
Mpcp1	DRSC07337		6816		2358		inactive
CG11007	DRSC06023		8245		2695		inactive
CG12963	DRSC05555		18764		11292		inactive
CG12963	DRSC06265		9191		3074		inactive
Setx	DRSC10859		2049	9703	1031	2721	inactive
Fkbp59	DRSC03323		2203	6577	784	2560	inactive
hig	DRSC07628		21816		4666		inactive
hig	DRSC22827		5.39e5	5.54e5	2.00e5	2.46e5	inactive
hig	DRSC22899		6.73e5	5.26e5	2.19e5	1.44e5	inactive
CG13130 (retired record)	DRSC02226		4930	14237	1420	3223	inactive
Vajk4	DRSC06589		12696		2025		inactive
Vajk4	DRSC07003		8460		3768		inactive
Prosalpha6	DRSC03401		1068	3008	325	1062	inactive
pain	DRSC04273		3028	6192	378	2352	inactive
CG12699	DRSC06162		9780		2449		inactive
Klp67A	DRSC11205		9880		3692		inactive
dj-1beta	DRSC14599		8778		2720		inactive
CG2811	DRSC04318		2749	5954	744	2290	inactive
CG10910	DRSC06007	Wg reporter activity lowered	8400		2902		inactive
RPA1	DRSC16830		4434		1600		inactive
lute	DRSC14812		13607		2945		inactive
lute	DRSC15769		3574	6853	1205	1873	inactive
Gr22a	DRSC22283		6.93e5	6.89e5	2.99e5	2.66e5	inactive
Cdc7	DRSC18428		30809	7.18e5	16738	2.37e5	inactive
Cdc7	DRSC18429		19756		11939		inactive
Cdc7	DRSC22133		9.80e5	9.52e5	4.33e5	5.09e5	inactive
CG17154	DRSC10253		5129		2165		inactive
CG5783	DRSC02894		3186	6521	1034	2157	inactive
ncd	DRSC17012		1744	4541	744	1147	inactive
cort	DRSC02148		3060		428		inactive
stc	DRSC03620		4224		1539		inactive
COX7AL	DRSC15313		9707		3012		inactive
CG32726	DRSC17521		3216		1240		inactive
Tdh	DRSC11788		5376		2400		inactive
Syn	DRSC16876		19209		4006		inactive
CG8001	DRSC08611		16864		5584		inactive
